# Laboratory results as given in the supplement of paper PMC8728848.
# This is one part of the list.
# B1: MFG-E8 (Mus musculus), P21956 (protein)
# chain: MQVSRVLAALCGMLLCASGLFAASGDFCDSSLCLNGGTCLTGQDNDIYCLCPEGFTGLVCNETERGPCSPNPCYNDAKCLVTLDTQRGDIFTEYICQCPVGYSGIHCETETNYYNLDGEYMFTTAVPNTAVPTPAPTPDLSNNLASRCSTQLGMEGGAIADSQISASSVYMGFMGLQRWGPELARLYRTGIVNAWTASNYDSKPWIQVNLLRKMRVSGVMTQGASRAGRAEYLKTFKVAYSLDGRKFEFIQDESGGDKEFLGNLDNNSLKVNMFNPTLEAQYIKLYPVSCHRGCTLRFELLGCELHGCSEPLGLKNNTIPDSQMSASSSYKTWNLRAFGWYPHLGRLDNQGKINAWTAQSNSAKEWLQVDLGTQRQVTGIITQGARDFGHIQYVASYKVAHSDDGVQWTVYEEQGSSKVFQGNLDNNSHKKNIFEKPFMARYVRVLPVSWHNRITLRLELLGC
# Assays:
# Test in all cases: glycan array binding signal (z-score within array); higher = stronger binding
# Conditions in all cases: glycan notation: IUPAC condensed, linker removed
# Fuc(a1-2)Gal = target: Fuc(a1-2)Gal
# How it was run: (§1)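 The Consortium for Functional Glycomics database supplied 3228 glycan arrays, of which those lacking an available protein sequence were dropped. The binding signal, a within-array Z-score, was averaged across arrays of the same protein sequence and across linkers. Negative scores can be read as non-binding.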
# Fuc(a1-2)Gal(b1-3)GalNAc = target: Fuc(a1-2)Gal(b1-3)GalNAc
# How it was run: as §1
# [1] = target: Fuc(a1-2)Gal(b1-3)GalNAc(a1-3)[Fuc(a1-2)]Gal(b1-4)Glc
# How it was run: as §1
# [2] = target: Fuc(a1-2)Gal(b1-3)GalNAc(a1-3)[Fuc(a1-2)]Gal(b1-4)GlcNAc
# How it was run: as §1
# [3] = target: Fuc(a1-2)Gal(b1-3)GalNAc(b1-3)Gal
# How it was run: as §1
# [4] = target: Fuc(a1-2)Gal(b1-3)GalNAc(b1-3)Gal(a1-4)Gal(b1-4)Glc
# How it was run: as §1
# [5] = target: Fuc(a1-2)Gal(b1-3)GalNAc(b1-4)[Neu5Ac(a2-3)]Gal(b1-4)Glc
# How it was run: as §1
# Fuc(a1-2)Gal(b1-3)GlcNAc = target: Fuc(a1-2)Gal(b1-3)GlcNAc
# How it was run: as §1
# [6] = target: Fuc(a1-2)Gal(b1-3)GlcNAc(b1-2)Man(a1-3)[Fuc(a1-2)Gal(b1-3)GlcNAc(b1-2)Man(a1-6)]Man(b1-4)GlcNAc(b1-4)GlcNAc
# How it was run: as §1
# [7] = target: Fuc(a1-2)Gal(b1-3)GlcNAc(b1-2)Man(a1-3)[Fuc(a1-2)Gal(b1-3)GlcNAc(b1-2)Man(a1-6)]Man(b1-4)GlcNAc(b1-4)[Fuc(a1-6)]GlcNAc
# How it was run: as §1
# [8] = target: Fuc(a1-2)Gal(b1-3)GlcNAc(b1-3)Gal(b1-4)Glc
# How it was run: as §1
# [9] = target: Fuc(a1-2)Gal(b1-3)GlcNAc(b1-3)GalNAc
# How it was run: as §1
# [10] = target: Fuc(a1-2)Gal(b1-3)GlcNAc(b1-3)[Fuc(a1-2)Gal(b1-3)GlcNAc(b1-6)]GalNAc
# How it was run: as §1
# [11] = target: Fuc(a1-2)Gal(b1-3)GlcNAc(b1-3)[Fuc(a1-3)[Gal(b1-4)]GlcNAc(b1-6)]Gal(b1-4)Glc
# How it was run: as §1
# [12] = target: Fuc(a1-2)Gal(b1-3)GlcNAc(b1-3)[Gal(b1-4)GlcNAc(b1-6)]Gal(b1-4)Glc
# How it was run: as §1
# [13] = target: Fuc(a1-2)Gal(b1-3)GlcNAc(b1-3)[Neu5Ac(a2-6)Gal(b1-4)GlcNAc(b1-6)]Gal(b1-4)Glc
# How it was run: as §1
# [14] = target: Fuc(a1-2)Gal(b1-3)GlcNAc6S
# How it was run: as §1
# [15] = target: Fuc(a1-2)Gal(b1-3)[Fuc(a1-4)]GlcNAc
# How it was run: as §1
# [16] = target: Fuc(a1-2)Gal(b1-3)[Fuc(a1-4)]GlcNAc(b1-2)Man(a1-3)[Fuc(a1-2)Gal(b1-3)[Fuc(a1-4)]GlcNAc(b1-2)Man(a1-3)]Man(b1-4)GlcNAc(b1-4)GlcNAc
# How it was run: as §1
# [17] = target: Fuc(a1-2)Gal(b1-3)[Fuc(a1-4)]GlcNAc(b1-2)Man(a1-3)[Fuc(a1-2)Gal(b1-3)[Fuc(a1-4)]GlcNAc(b1-2)Man(a1-6)]Man(b1-4)GlcNAc(b1-4)GlcNAc
# How it was run: as §1
# [18] = target: Fuc(a1-2)Gal(b1-3)[Fuc(a1-4)]GlcNAc(b1-2)Man(a1-3)[Fuc(a1-2)Gal(b1-3)[Fuc(a1-4)]GlcNAc(b1-2)Man(a1-6)]Man(b1-4)GlcNAc(b1-4)[Fuc(a1-6)]GlcNAc(b1-4)[Fuc(a1-6)]GlcNAc
# How it was run: as §1
# [19] = target: Fuc(a1-2)Gal(b1-3)[Fuc(a1-4)]GlcNAc(b1-3)[Fuc(a1-3)[Gal(b1-4)]GlcNAc(b1-6)]Gal(b1-4)Glc
# How it was run: as §1
# [20] = target: Fuc(a1-2)Gal(b1-3)[Fuc(a1-4)]GlcNAc(b1-3)[Gal(b1-4)GlcNAc(b1-6)]Gal(b1-4)Glc
# How it was run: as §1
# [21] = target: Fuc(a1-2)Gal(b1-4)Fuc(a1-3)]GlcNAc(b1-2)Man(a1-3)[Fuc(a1-2)Gal(b1-4)[Fuc(a1-3)]GlcNAc(b1-2)Man(a1-6)]Man(b1-4)GlcNAc(b1-4)GlcNAc
# How it was run: as §1
# Fuc(a1-2)Gal(b1-4)Glc = target: Fuc(a1-2)Gal(b1-4)Glc
# How it was run: as §1
# Fuc(a1-2)Gal(b1-4)Glc6S = target: Fuc(a1-2)Gal(b1-4)Glc6S
# How it was run: as §1
# Fuc(a1-2)Gal(b1-4)GlcNAc = target: Fuc(a1-2)Gal(b1-4)GlcNAc
# How it was run: as §1
# [22] = target: Fuc(a1-2)Gal(b1-4)GlcNAc(b1-2)Man
# How it was run: as §1
# [23] = target: Fuc(a1-2)Gal(b1-4)GlcNAc(b1-2)Man(a1-3)[Fuc(a1-2)Gal(b1-4)GlcNAc(b1-2)Man(a1-6)]Man(b1-4)GlcNAc(b1-4)GlcNAc
# How it was run: as §1
# [24] = target: Fuc(a1-2)Gal(b1-4)GlcNAc(b1-2)Man(a1-3)[Fuc(a1-2)Gal(b1-4)GlcNAc(b1-2)Man(a1-6)]Man(b1-4)GlcNAc(b1-4)[Fuc(a1-6)]GlcNAc
# How it was run: as §1
# [25] = target: Fuc(a1-2)Gal(b1-4)GlcNAc(b1-2)[Fuc(a1-2)Gal(b1-4)GlcNAc(b1-4)]Man(a1-3)[Fuc(a1-2)Gal(b1-4)GlcNAc(b1-2)Man(a1-6)]Man(b1-4)GlcNAc(b1-4)GlcNAc
# How it was run: as §1
# [26] = target: Fuc(a1-2)Gal(b1-4)GlcNAc(b1-3)Gal(b1-4)GlcNAc
# How it was run: as §1
# [27] = target: Fuc(a1-2)Gal(b1-4)GlcNAc(b1-3)Gal(b1-4)GlcNAc(b1-2)Man(a1-3)[Fuc(a1-2)Gal(b1-4)GlcNAc(b1-3)Gal(b1-4)GlcNAc(b1-2)Man(a1-6)]Man(b1-4)GlcNAc(b1-4)GlcNAc
# How it was run: as §1
# [28] = target: Fuc(a1-2)Gal(b1-4)GlcNAc(b1-3)Gal(b1-4)GlcNAc(b1-3)Gal(b1-4)GlcNAc
# How it was run: as §1
# [29] = target: Fuc(a1-2)Gal(b1-4)GlcNAc(b1-3)GalNAc
# How it was run: as §1
# [30] = target: Fuc(a1-2)Gal(b1-4)GlcNAc(b1-3)[Fuc(a1-2)Gal(b1-4)GlcNAc(b1-6)]GalNAc
# How it was run: as §1
# [31] = target: Fuc(a1-2)Gal(b1-4)GlcNAc(b1-3)[Fuc(a1-3)[Gal(b1-4)]GlcNAc(b1-6)]Gal(b1-4)Glc
# How it was run: as §1
binder,measurement,setting,value
B1,glycan array binding signal (z-score),Fuc(a1-2)Gal,-0.805
same,glycan array binding signal (z-score),Fuc(a1-2)Gal(b1-3)GalNAc,0.362
same,glycan array binding signal (z-score),[1],-0.109
same,glycan array binding signal (z-score),[2],0.179
same,glycan array binding signal (z-score),[3],0.021
same,glycan array binding signal (z-score),[4],-0.515
same,glycan array binding signal (z-score),[5],0.441
same,glycan array binding signal (z-score),Fuc(a1-2)Gal(b1-3)GlcNAc,0.358
same,glycan array binding signal (z-score),[6],-0.774
same,glycan array binding signal (z-score),[7],0.684
same,glycan array binding signal (z-score),[8],0.064
same,glycan array binding signal (z-score),[9],0.006
same,glycan array binding signal (z-score),[10],0.462
same,glycan array binding signal (z-score),[11],1.04
same,glycan array binding signal (z-score),[12],-0.065
same,glycan array binding signal (z-score),[13],0.247
same,glycan array binding signal (z-score),[14],1.53
same,glycan array binding signal (z-score),[15],-0.356
same,glycan array binding signal (z-score),[16],0.299
same,glycan array binding signal (z-score),[17],2.2
same,glycan array binding signal (z-score),[18],0.394
same,glycan array binding signal (z-score),[19],0.24
same,glycan array binding signal (z-score),[20],-0.803
same,glycan array binding signal (z-score),[21],0.316
same,glycan array binding signal (z-score),Fuc(a1-2)Gal(b1-4)Glc,-0.349
same,glycan array binding signal (z-score),Fuc(a1-2)Gal(b1-4)Glc6S,0.08
same,glycan array binding signal (z-score),Fuc(a1-2)Gal(b1-4)GlcNAc,-0.121
same,glycan array binding signal (z-score),[22],0.441
same,glycan array binding signal (z-score),[23],-0.554
same,glycan array binding signal (z-score),[24],0.261
same,glycan array binding signal (z-score),[25],0.01
same,glycan array binding signal (z-score),[26],-0.504
same,glycan array binding signal (z-score),[27],0.035
same,glycan array binding signal (z-score),[28],-0.712
same,glycan array binding signal (z-score),[29],0.522
same,glycan array binding signal (z-score),[30],0.304
same,glycan array binding signal (z-score),[31],-0.32

# Two entries picked at random from those above, as already listed:
binder,measurement,setting,value
B1,glycan array binding signal (z-score),[17],2.2
same,glycan array binding signal (z-score),[7],0.684
